Binding data for one molecule are collected here from article PMC6858330.

Results are given in words; binding and its absence hold for the method and conditions named. Binding seen in cells or lysates may run through a third protein. A yes stands for co-enrichment or nearness to the bait. Other partners may have been found. Tags and fused reporters may be left off the sequences shown.

For the assay, the target named is T1, BirA*-tagged Arf1p (Arf1p-BirA(R118G)-S tag) (S. cerevisiae) (UniProt P11076).
T1 sequence: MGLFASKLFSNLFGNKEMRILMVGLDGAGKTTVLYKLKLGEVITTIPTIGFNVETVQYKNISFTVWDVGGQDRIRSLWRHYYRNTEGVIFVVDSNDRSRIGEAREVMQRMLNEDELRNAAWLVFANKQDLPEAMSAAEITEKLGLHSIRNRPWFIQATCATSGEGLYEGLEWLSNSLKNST
Briefly: proximity labelling; BioID in living yeast: Arf1p-BirA*-S and GFP-Vps9p; 10 μM D-biotin for 3 h; lysis in 50 mM Tris-HCl pH 8.0, 150 mM NaCl, 4 M urea; biotinylated proteins pulled down with Streptavidin agarose; anti-GFP blot.

B1: GFP-Vps9p (protein, UniProt P54787 1-451)
chain: MTDDEKREILKEFDPFSQLEQANGNPDKDVKFKKDDPNRAAAEETNRDISAQDKGDEEPFYDFQIFIKQLQTPGADPLVKYTKSFLRNFLAQRLLWTVSEEIKLISDFKTFIYDKFTLYEPFRSLDNSKMRNAKEGMEKLIMGKLYSRCFSPSLYEILQKPLDDEHMKDLTNDDTLLEKIRHYRFISPIMLDIPDTMPNARLNKFVHLASKELGKINRFKSPRDKMVCVLNASKVIFGLLKHTKLEQNGADSFIPVLIYCILKGQVRYLVSNVNYIERFRSPDFIRGEEEYYLSSLQAALNFIMNLTERSLTIEDHEDFEEAYQRNFKQLAEEKEEEEKKKQLEIPDELQPNGTLLKPLDEVTNIVISKFNELFSPIGEPTQEEALKSEQSNKEEDVSSLIKKIEENERKDTLNTLQNMFPDMDPSLIEDVCIAKKSRIGPCVDALLSLSE
As to B1, the binding entry is “binds”.
